For assay [1], the target named is T1, GAL4 DNA-binding domain-fused VIP1ΔN164 (C-terminal region, amino acids 165–341, of VIP1) (Arabidopsis thaliana) (UniProt Q9MA75).
T1 sequence: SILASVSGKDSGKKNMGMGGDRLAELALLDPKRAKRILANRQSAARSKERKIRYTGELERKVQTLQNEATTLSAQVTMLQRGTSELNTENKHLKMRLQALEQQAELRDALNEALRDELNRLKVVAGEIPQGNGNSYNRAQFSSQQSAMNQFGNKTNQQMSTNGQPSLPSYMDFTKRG
The experiment in a line: two-hybrid; S. cerevisiae AH109 co-transformed with pGBKT7-VIP1ΔN164 (GAL4 BD fusion, bait) and pGADT7-Rec constructs (GAL4 AD fusions); growth on SD medium lacking adenine and histidine; BD alone as control.

In assay [2] the target is T2, VIP1 fused to nYFP or to cYFP (BiFC constructs) (Arabidopsis thaliana) (UniProt Q9MA75).
T2 sequence: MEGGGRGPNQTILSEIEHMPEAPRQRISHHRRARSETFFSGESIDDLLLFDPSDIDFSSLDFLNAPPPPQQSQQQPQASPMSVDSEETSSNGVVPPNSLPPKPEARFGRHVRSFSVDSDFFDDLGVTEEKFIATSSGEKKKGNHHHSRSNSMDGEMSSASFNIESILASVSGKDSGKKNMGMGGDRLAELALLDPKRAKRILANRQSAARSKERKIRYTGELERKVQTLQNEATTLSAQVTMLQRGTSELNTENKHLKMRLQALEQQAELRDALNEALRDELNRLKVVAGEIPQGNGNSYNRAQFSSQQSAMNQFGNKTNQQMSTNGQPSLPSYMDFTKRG
Kind of assay: split reporter; BiFC: nYFP-fused VIP1 and cYFP-fused proteins co-introduced into onion epidermal cells by particle bombardment; YFP fluorescence by epifluorescence microscopy; nYFP alone and cYFP alone as negative controls.

No constants are given. Whether binding was seen depends on the method and setting. For some of these results: In cells and extracts the contact can be indirect. Some results given as binding are weak or reduced against the parent protein; the word gives no strength. Tags and fused reporters may be left off the sequences shown.

B1: GAL4 activation domain-fused PosF21 (protein, UniProt Q04088 1-398)
chain: MDKEKSPAPPCGGLPPPSPSGRCSAFSEAGPIGHGSDANRMSHDISRMLDNPPKKIGHRRAHSEILTLPDDLSFDSDLGVVGNAADGASFSDETEEDLLSMYLDMDKFNSSATSSAQVGEPSGTAWKNETMMQTGTGSTSNPQNTVNSLGERPRIRHQHSQSMDGSMNINEMLMSGNEDDSAIDAKKSMSATKLAELALIDPKRAKRIWANRQSAARSKERKTRYIFELERKVQTLQTEATTLSAQLTLLQRDTNGLTVENNELKLRLQTMEQQVHLQDELNEALKEEIQHLKVLTGQVAPSALNYGSFGSNQQQFYSNNQSMQTILAAKQFQQLQIHSQKQQQQQQQQQQQHQQQQQQQQQYQFQQQQMQQLMQQRLQQQEQQNGVRLKPSQAQKEN
On to B1, for which the binding result in assay [1] is reported as “binds”.

B2: cYFP-fused PosF21 (protein, UniProt Q04088 1-398)
chain: B1 chain
Consider B2, for which, in assay [2], the binding result was “binds”.

B3: GAL4 activation domain-fused full-length VIP1 (protein, UniProt Q9MA75 1-341)
chain: T2 sequence
For the molecule B3, the binding entry in assay [1] is listed as “binds”.

B4: VIP1 fused to nYFP or to cYFP (BiFC constructs) (protein, UniProt Q9MA75 1-341)
chain: T2 sequence
B4: in assay [2], the binding result is given as “binds”.

For the origin of these results see PMC4122391, “Analysis of Functions of VIP1 and Its Close Homologs in Osmosensory Responses of Arabidopsis thaliana”.
